Article doi:10.1101/2023.03.22.533821
Results are given in words; binding and its absence hold for the method and conditions named. Binding seen in cells or lysates may run through a third protein. Some results given as binding are weak or reduced against the parent protein; the word gives no strength.

Target: T1, phosphorylated activating transcription factor 2 (human (endogenous in H1299)), P15336
T1 chain: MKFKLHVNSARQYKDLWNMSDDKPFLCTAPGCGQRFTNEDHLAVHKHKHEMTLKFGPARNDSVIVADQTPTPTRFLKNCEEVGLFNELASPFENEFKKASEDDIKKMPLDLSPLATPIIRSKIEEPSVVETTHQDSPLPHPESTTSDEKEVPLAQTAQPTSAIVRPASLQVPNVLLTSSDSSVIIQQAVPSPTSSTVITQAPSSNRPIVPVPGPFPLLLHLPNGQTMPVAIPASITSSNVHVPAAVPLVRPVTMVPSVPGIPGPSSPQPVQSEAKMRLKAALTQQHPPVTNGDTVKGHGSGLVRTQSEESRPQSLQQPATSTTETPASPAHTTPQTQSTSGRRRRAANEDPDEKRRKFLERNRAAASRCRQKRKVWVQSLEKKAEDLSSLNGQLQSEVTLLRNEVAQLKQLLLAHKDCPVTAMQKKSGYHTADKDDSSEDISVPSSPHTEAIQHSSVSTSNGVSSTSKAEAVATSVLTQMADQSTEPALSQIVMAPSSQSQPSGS
Experiment: co-IP
Details: remark: other sources report otherwise

B1: phosphorylated c-Jun, P05412 1-331 (protein)
chain: MTAKMETTFYDDALNASFLPSESGPYGYSNPKILKQSMTLNLADPVGSLKPHLRAKNSDLLTSPDVGLLKLASPELERLIIQSSNGHITTTPTPTQFLCPKNVTDEQEGFAEGFVRALAELHSQNTLPSVTSAAQPVNGAGMVAPAVASVAGGSGSGGFSASLHSEPPVYANLSNFNPGALSSGGGAPSYGAAGLAFPAQPQQQQQPPHHLPQQMPVQHPRLQALKEEPQTVPEMPGETPPLSPIDMESQERIKAERKRMRNRIAASKCRKRKLERIARLEEKVKTLKAQNSELASTANMLREQVAQLKQKVMNHVNSGCQLMLTQQLQTF
modifications: here or on the partner: phosphorylated (p-c-Jun); residues not stated; phosphorylated (p-ATF2); residues not stated
- binding: binds
